Drawing on article doi:10.1101/2024.10.13.618066, this text covers binding for four molecules.

The chains behind the UniProt entries cited, without tags or fusion partners.
UniProt A6NHR9: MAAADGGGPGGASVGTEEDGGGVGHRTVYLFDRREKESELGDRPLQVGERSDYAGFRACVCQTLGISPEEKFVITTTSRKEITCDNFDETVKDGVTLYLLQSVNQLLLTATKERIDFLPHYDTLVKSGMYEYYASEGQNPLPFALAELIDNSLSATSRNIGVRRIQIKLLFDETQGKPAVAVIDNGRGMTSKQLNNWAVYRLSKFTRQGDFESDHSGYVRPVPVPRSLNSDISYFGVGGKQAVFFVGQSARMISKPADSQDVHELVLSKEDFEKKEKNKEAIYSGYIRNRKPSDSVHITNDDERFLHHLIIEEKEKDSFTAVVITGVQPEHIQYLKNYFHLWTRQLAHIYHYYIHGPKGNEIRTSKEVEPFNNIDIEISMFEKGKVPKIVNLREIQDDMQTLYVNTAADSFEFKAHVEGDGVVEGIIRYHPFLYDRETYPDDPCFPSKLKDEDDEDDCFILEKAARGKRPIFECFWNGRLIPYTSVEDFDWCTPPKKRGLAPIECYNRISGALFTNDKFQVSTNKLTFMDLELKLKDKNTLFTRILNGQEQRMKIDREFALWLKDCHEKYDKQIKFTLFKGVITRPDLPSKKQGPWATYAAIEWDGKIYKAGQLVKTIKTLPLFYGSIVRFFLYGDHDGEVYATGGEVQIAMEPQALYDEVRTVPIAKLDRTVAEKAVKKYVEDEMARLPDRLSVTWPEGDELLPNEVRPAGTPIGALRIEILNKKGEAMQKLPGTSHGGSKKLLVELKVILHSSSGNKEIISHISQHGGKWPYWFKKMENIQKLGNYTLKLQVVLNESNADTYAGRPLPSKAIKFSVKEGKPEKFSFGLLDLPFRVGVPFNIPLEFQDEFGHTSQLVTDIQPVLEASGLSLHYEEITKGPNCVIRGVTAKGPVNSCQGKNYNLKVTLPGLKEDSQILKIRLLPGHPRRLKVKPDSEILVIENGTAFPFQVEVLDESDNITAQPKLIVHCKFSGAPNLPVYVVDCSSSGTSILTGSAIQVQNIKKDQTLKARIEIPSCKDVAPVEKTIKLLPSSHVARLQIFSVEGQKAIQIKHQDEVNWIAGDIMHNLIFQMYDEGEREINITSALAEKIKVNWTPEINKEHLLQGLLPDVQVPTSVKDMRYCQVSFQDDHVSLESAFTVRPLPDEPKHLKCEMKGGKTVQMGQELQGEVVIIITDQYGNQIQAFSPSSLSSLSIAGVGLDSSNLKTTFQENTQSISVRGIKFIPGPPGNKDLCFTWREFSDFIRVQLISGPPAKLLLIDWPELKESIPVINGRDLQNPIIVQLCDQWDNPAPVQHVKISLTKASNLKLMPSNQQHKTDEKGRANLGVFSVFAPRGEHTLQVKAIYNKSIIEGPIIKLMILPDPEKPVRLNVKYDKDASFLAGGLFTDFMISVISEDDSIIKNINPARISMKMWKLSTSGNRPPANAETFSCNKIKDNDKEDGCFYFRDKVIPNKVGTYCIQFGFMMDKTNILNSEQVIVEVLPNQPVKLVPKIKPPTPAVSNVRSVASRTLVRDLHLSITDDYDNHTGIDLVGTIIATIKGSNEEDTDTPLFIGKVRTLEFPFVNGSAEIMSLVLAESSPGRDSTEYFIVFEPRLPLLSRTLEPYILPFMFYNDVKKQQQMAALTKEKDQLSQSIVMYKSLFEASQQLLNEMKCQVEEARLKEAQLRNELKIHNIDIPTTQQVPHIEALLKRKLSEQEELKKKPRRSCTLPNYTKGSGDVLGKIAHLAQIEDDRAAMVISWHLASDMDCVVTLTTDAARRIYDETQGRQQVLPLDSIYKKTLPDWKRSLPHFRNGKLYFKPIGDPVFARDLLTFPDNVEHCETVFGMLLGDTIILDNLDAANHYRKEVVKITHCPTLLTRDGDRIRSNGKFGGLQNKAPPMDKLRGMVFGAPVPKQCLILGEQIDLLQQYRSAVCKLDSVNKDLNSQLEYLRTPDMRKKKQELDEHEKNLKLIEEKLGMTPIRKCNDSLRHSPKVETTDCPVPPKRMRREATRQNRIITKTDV
UniProt Q9Y265: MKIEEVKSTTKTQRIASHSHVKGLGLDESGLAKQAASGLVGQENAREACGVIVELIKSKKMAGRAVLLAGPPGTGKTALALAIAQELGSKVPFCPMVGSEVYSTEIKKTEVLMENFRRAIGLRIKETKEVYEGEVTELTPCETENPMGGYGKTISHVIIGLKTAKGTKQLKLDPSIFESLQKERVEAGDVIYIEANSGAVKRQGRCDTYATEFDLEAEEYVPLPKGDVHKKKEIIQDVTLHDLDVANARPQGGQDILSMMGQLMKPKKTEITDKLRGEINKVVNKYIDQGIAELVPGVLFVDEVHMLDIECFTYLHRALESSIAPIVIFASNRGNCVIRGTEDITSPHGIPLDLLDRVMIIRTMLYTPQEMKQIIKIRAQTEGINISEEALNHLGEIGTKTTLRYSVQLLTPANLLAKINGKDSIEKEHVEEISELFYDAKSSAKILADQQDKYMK
UniProt Q13263: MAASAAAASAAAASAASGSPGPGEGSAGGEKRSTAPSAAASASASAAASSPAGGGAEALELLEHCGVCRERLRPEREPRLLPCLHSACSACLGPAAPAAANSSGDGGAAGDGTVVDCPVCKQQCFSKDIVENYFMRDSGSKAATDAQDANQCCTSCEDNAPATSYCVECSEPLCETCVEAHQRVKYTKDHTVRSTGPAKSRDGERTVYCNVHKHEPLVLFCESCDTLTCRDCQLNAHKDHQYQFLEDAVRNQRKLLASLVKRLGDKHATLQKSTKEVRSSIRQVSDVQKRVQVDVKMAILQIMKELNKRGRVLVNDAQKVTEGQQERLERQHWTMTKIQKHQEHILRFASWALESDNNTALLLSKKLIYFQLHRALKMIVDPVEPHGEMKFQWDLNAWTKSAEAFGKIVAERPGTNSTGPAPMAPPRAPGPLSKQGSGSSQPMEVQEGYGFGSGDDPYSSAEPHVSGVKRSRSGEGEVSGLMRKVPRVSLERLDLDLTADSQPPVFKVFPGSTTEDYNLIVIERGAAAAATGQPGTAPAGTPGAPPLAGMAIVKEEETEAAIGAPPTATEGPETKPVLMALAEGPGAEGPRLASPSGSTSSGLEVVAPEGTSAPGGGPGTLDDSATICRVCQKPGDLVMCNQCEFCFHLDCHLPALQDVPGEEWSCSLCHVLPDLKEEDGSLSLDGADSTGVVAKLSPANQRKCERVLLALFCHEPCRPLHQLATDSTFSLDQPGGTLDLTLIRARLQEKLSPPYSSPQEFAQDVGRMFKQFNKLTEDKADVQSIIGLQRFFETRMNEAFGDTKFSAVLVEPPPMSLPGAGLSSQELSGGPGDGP

In this assay the target is GFP-SMCHD1 (wild type) (human) (UniProt A6NHR9). Put plainly: affinity purification with mass spectrometry.

No constants are given. Whether binding was seen depends on the method and setting. In cells and extracts the contact can be indirect. A yes stands for co-enrichment or nearness to the bait. Other partners may have been found.

On to “HNRNPK (endogenous, HEK293T, HeLa and U2OS cells) (from UniProt P61978 1-463)”, for which the binding result is recorded as “binds”.
The result for “RUVBL1 (endogenous) (from UniProt Q9Y265 1-456)” reads “binds”; that for “TRIM28 (endogenous, HEK293T, HeLa and U2OS cells) (from UniProt Q13263 1-835)”, “binds”.

B1: LRIF1 (endogenous) (protein, UniProt Q5T3J3 1-769)
chain: MSNNLRRVFLKPAEENSGNASRCVSGCMYQVVQTIGSDGKNLLQLLPIPKSSGNLIPLVQSSVMSDALKGNTGKPVQVTFQTQISSSSTSASVQLPIFQPASSSNYFLTRTVDTSEKGRVTSVGTGNFSSSVSKVQSHGVKIDGLTMQTFAVPPSTQKDSSFIVVNTQSLPVTVKSPVLPSGHHLQIPAHAEVKSVPASSLPPSVQQKILATATTSTSGMVEASQMPTVIYVSPVNTVKNVVTKNFQNIYPKPVTEIAKPVILNTTQIPKNVATETQLKGGQHSQAAPVKWIFQDNLQPFTPSLVPVKSSNNVASKILKTFVDRKNLGDNTINMPPLSTIDPSGTRSKNMPIKDNALVMFNGKVYLLAKKGTDVLPSQIDQQNSVSPDTPVRKDTLQTVSSSPVTEISREVVNIVLAKSKSSQMETKSLSNTQLASMANLRAEKNKVEKPSPSTTNPHMNQSSNYLKQSKTLFTNPIFPVGFSTGHNAPRKVTAVIYARKGSVLQSIEKISSSVDATTVTSQQCVFRDQEPKIHNEMASTSDKGAQGRNDKKDSQGRSNKALHLKSDAEFKKIFGLTKDLRVCLTRIPDHLTSGEGFDSFSSLVKSGTYKETEFMVKEGERKQQNFDKKRKAKTNKKMDHIKKRKTENAYNAIINGEANVTGSQLLSSILPTSDVSQHNILTSHSKTRQEKRTEMEYYTHEKQEKGTLNSNAAYEQSHFFNKNYTEDIFPVTPPELEETIRDEKIRRLKQVLREKEAALEEMRKKMHQK
B1: the binding result is “binds”.
